Data reported in PubChem BioAssay AID192 (DTP/NCI, 2004).
The list shows only some results of the screen, not a fair sample: it is rich in T/C values a quarter to a half above the control, in often repeated tests (any T/C) and in doses without a T/C. Other doses and runs of a compound stand elsewhere. T/C: endpoint of the treated group in % of that of the vehicle group. Some entries give survivors of the animals treated and no T/C: the source files T/C as zero there, which appears to mark a toxic dose or a test without result, not a measured value. Some doses without a T/C left all or most animals alive at the check, yet need not have been tolerated: the source hardly ever lists a survival T/C far under the control, and the zero likely stands for such cases as well. Survivors were counted at the toxicity check, usually on the fifth day, unless a day is given; later deaths do not show. Schedules are NCI's codes, read here as Q, the interval in days (D) or hours (H), X, the number of doses. Some entries were tested several times; their values stand side by side, smallest first. Signs of the kind (2×) say how often a value occurs here. For survival time, the PubChem record calls one and a half times the control and up active, and a quarter to a half above the control has no call in these data; cut-offs in other NCI protocols can differ. Some T/C values are followed by the survivors on the day toxicity was checked, most often the fifth; where none is given, no animal had died by that day. Numbered stars: 1 amine (or outer) side, 2 acyl side, 3 side chain; on linkers, the order of the positions; unused ones are H or OH. Bridge positions count the residues as written; N and C are the ends. Square brackets hold non-standard residues; d marks the D form. Peptide text beside a SMILES is read from it. I, II: the chains in the order shown. Actinocin(1to9) = Cc1c2oc3c(C)ccc(C(=O)[*:2])c3nc-2c(C(=O)[*:1])c(N)c1=O; Hyp = O=C(O)[CH]1C[CH](O)CN1; NMeV = CN[CH](C(=O)O)C(C)C; Sar = CNCC(=O)O

Test system: BDF1 mice, B16 melanoma ip, median survival T/C
Test: NCI In Vivo Anticancer Drug Screen. Data for tumor model B16 Melanoma (intraperitoneal) in B6D2F1 (BDF1) mice
Settings: T/C endpoint: median survival time, higher T/C = longer survival
Summary of the method: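 Compounds were tested in mice carrying transplantable tumors. Survival or tumor size was recorded, and each value is the treated-group measurement (T) divided by that of the vehicle-treated control group (C).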

[1] = dose: 20.0 mg/kg/injection, schedule: Q01DX009 (ip), vehicle: Klucel (hydroxypropylcellulose) (HPC)
[2] = dose: 40.0 mg/kg/injection, schedule: Q01DX009 (ip), vehicle: Klucel (hydroxypropylcellulose) (HPC)
[3] = dose: 80.0 mg/kg/injection, schedule: Q01DX009 (ip), vehicle: saline

Structure (SMILES): Cc1c2oc3c(C)ccc(C(=O)NC4C(=O)NC(C(C)C)C(=O)N5CCCC5C(=O)N(C)CC(=O)N(C)C(C(C)C)C(=O)OC4C)c3nc-2c(C(=O)NC2C(=O)NC(C(C)C)C(=O)N3CC(O)CC3C(=O)N(C)CC(=O)N(C)C(C(C)C)C(=O)OC2C)c(N)c1=O (stereo not drawn) (I: TV[Hyp][Sar][NMeV] / II: TVP[Sar][NMeV]; ester I:1-I:C, II:1-II:C; linker I:N-II:N via Actinocin(1to9); configuration not given here)
- T/C (dose: 75.0 micrograms/kg/injection, schedule: Q01DX009 (ip), vehicle: saline + alcohol): 133 % of control
- survivor count (dose: 200.0 micrograms/kg/injection, schedule: Q01DX009 (ip), vehicle: saline + alcohol): 8 of 8
- T/C (dose: 225.0 micrograms/kg/injection, schedule: Q04DX003 (ip), vehicle: saline + alcohol): 142 % of control
- survivor count (dose: 300.0 micrograms/kg/injection, schedule: Q01DX009 (ip), vehicle: saline + alcohol): 8 of 8
- T/C (dose: 300.0 micrograms/kg/injection, schedule: Q04DX003 (ip), vehicle: saline + alcohol): 137 and 147 % of control
- T/C (dose: 450.0 micrograms/kg/injection, schedule: Q04DX003 (ip), vehicle: saline + alcohol): 141 % of control
- survivor count (dose: 600.0 micrograms/kg/injection, schedule: Q04DX003 (ip), vehicle: saline + alcohol): 8 of 8
- survivor count (dose: 900.0 micrograms/kg/injection, schedule: Q04DX003 (ip), vehicle: saline + alcohol): 8 of 8

Structure (SMILES): O=c1[nH]cc(F)c(=O)[nH]1
- T/C (dose: 1.0 mg/kg/injection, schedule: Q01DX009 (ip), vehicle: saline): 126 % of control
- T/C (dose: 1.25 mg/kg/injection, schedule: Q01DX009 (ip), vehicle: saline): 103 (2×), 106, 108 % of control
- T/C (dose: 2.5 mg/kg/injection, schedule: Q01DX009 (ip), vehicle: saline, evaluated on day 5): 105, 109 (2×), 111 % of control
- T/C (dose: 2.5 mg/kg/injection, schedule: Q01DX009 (ip), vehicle: saline, evaluated on day 45): 96 % of control
- T/C (dose: 2.5 mg/kg/injection, schedule: Q01DX009 (ip), vehicle: saline, evaluated on day 60): 95, 114, 142 % of control
- T/C (dose: 5.0 mg/kg/injection, schedule: Q01DX009 (ip), vehicle: saline, evaluated on day 5): 109, 110, 111, 113, 120 % of control
- T/C (dose: 5.0 mg/kg/injection, schedule: Q01DX009 (ip), vehicle: saline, evaluated on day 10): 107 % of control [8 of 9 alive]
- T/C (dose: 5.0 mg/kg/injection, schedule: Q01DX009 (ip), vehicle: saline, evaluated on day 35): 137 % of control
- T/C (dose: 5.0 mg/kg/injection, schedule: Q01DX009 (ip), vehicle: saline, evaluated on day 45): 105 % of control
- T/C (dose: 5.0 mg/kg/injection, schedule: Q01DX009 (ip), vehicle: saline, evaluated on day 60): 102, 108, 115, 117, 121 % of control
- T/C (dose: 5.0 mg/kg/injection, schedule: Q01DX017 (ip), vehicle: saline): 128 % of control
- T/C (dose: 5.0 mg/kg/injection, schedule: Q03HX024 (ip), vehicle: saline): 125 % of control
- T/C (dose: 10.0 mg/kg/injection, schedule: Q01DX009 (ip), vehicle: Klucel (hydroxypropylcellulose) (HPC)): 97, 102, 103, 105 [5 of 6 alive], 118 (2×), 125, 127, 130, 133 % of control
- T/C (dose: 10.0 mg/kg/injection, schedule: Q01DX009 (ip), vehicle: saline, evaluated on day 5): 118, 120 (2×), 122, 125 % of control
- T/C (dose: 10.0 mg/kg/injection, schedule: Q01DX009 (ip), vehicle: saline, evaluated on day 10): 109 % of control [8 of 9 alive]
- T/C (dose: 10.0 mg/kg/injection, schedule: Q01DX009 (ip), vehicle: saline, evaluated on day 35): 137 % of control
- T/C (dose: 10.0 mg/kg/injection, schedule: Q01DX009 (ip), vehicle: saline, evaluated on day 45): 115 % of control
- T/C (dose: 10.0 mg/kg/injection, schedule: Q01DX009 (ip), vehicle: saline, evaluated on day 60): 88, 100, 102 (2×), 104, 105, 107, 109, 110, 112, 115 [5 of 6 alive], 117, 119, 120, 121, 122 [5 of 6 alive], 125, 128, 130, 131 % of control
- T/C (dose: 10.0 mg/kg/injection, schedule: Q01DX017 (ip), vehicle: saline, evaluated on day 35): 142 % of control
- T/C (dose: 10.0 mg/kg/injection, schedule: Q01DX017 (ip), vehicle: saline, evaluated on day 60): 128 % of control
- T/C (dose: 10.0 mg/kg/injection, schedule: Q03HX024 (ip), vehicle: saline): 130 % of control
- T/C [1]: 94, 107, 108, 113, 127, 136, 144, 146 % of control (2×)
- survivor count [1]: 6 of 6
- T/C (dose: 20.0 mg/kg/injection, schedule: Q01DX009 (ip), vehicle: saline with Tween-80): 125 % of control
- T/C (dose: 20.0 mg/kg/injection, schedule: Q01DX009 (ip), vehicle: saline, evaluated on day 5): 121 [8 of 9 alive], 124, 130, 131, 138 % of control
- T/C (dose: 20.0 mg/kg/injection, schedule: Q01DX009 (ip), vehicle: saline, evaluated on day 10): 122 [8 of 9 alive] and 133 % of control
- T/C (dose: 20.0 mg/kg/injection, schedule: Q01DX009 (ip), vehicle: saline, evaluated on day 35): 142 % of control
- T/C (dose: 20.0 mg/kg/injection, schedule: Q01DX009 (ip), vehicle: saline, evaluated on day 45): 131 % of control
- T/C (dose: 20.0 mg/kg/injection, schedule: Q01DX009 (ip), vehicle: saline, evaluated on day 60): 97, 105, 107 (2×), 112, 116 (2×), 117, 121 (2×), 128, 130, 132, 135, 135 [4 of 6 alive], 137, 142, 148, 150 % of control
- survivor count (dose: 20.0 mg/kg/injection, schedule: Q03HX024 (ip), vehicle: saline): 10 of 10
- T/C (dose: 20.0 mg/kg/injection, schedule: Q05DX010 (ip), vehicle: saline): 137 % of control
- T/C (dose: 30.0 mg/kg/injection, schedule: Q01DX009 (ip), vehicle: saline): 126 % of control
- T/C (dose: 33.3 mg/kg/injection, schedule: Q01DX009 (ip), vehicle: saline): 137 % of control
- T/C [2]: 93, 110, 111, 128 % of control [4 of 6 alive]
- survivor count [2]: 6 of 6
- T/C (dose: 40.0 mg/kg/injection, schedule: Q01DX009 (ip), vehicle: saline with Tween-80): 128 % of control
- T/C (dose: 40.0 mg/kg/injection, schedule: Q01DX009 (ip), vehicle: saline, evaluated on day 5): 52 (2×), 55, 56, 63 % of control
- T/C (dose: 40.0 mg/kg/injection, schedule: Q01DX009 (ip), vehicle: saline, evaluated on day 10): 85 % of control
- T/C (dose: 40.0 mg/kg/injection, schedule: Q01DX009 (ip), vehicle: saline, evaluated on day 60): 90 (2×), 100, 102, 105 (2×), 132 % of control
- survivor count (dose: 40.0 mg/kg/injection, schedule: Q01DX009 (ip), vehicle: saline): 5 of 6, 10 of 10 (3×), 6 of 6
- survivor count (dose: 40.0 mg/kg/injection, schedule: Q01DX017 (ip), vehicle: saline): 10 of 10
- T/C (dose: 40.0 mg/kg/injection, schedule: Q05DX010 (ip), vehicle: saline): 145 % of control
- survivor count (dose: 50.0 mg/kg/injection, schedule: Q01DX009 (ip), vehicle: saline): 10 of 10
- survivor count (dose: 60.0 mg/kg/injection, schedule: Q01DX009 (ip), vehicle: saline): 10 of 10
- T/C (dose: 60.0 mg/kg/injection, schedule: Q04DX003 (ip), vehicle: saline): 130 % of control
- T/C [3]: 36, 41, 46, 47 % of control
- survivor count [3]: 6 of 6
- survivor count (dose: 100.0 mg/kg/injection, schedule: Q01DX009 (ip), vehicle: saline): 10 of 10
- survivor count (dose: 100.0 mg/kg/injection, schedule: Q04DX003 (ip), vehicle: saline): 10 of 10
- survivor count (dose: 100.0 mg/kg/injection, schedule: Q04DX005 (ip), vehicle: saline): 10 of 10
- T/C (dose: 160.0 mg/kg/injection, schedule: Q01DX009 (ip), vehicle: saline): 31, 33, 36, 39 % of control
- survivor count (dose: 200.0 mg/kg/injection, schedule: Q01DX009 (ip), vehicle: saline): 10 of 10
- survivor count (dose: 200.0 mg/kg/injection, schedule: Q04DX003 (ip), vehicle: saline): 10 of 10
- survivor count (dose: 400.0 mg/kg/injection, schedule: Q01DX001 (ip), vehicle: saline): 10 of 10
- survivor count (dose: 400.0 mg/kg/injection, schedule: Q01DX009 (ip), vehicle: saline): 10 of 10
